# The whole screen tested about 78,000 compounds, of which about 1,800 (2.3%) were called active. Inconclusive means that the source gave no clear call. Such entries were picked first, then a sample of the others. Cut-off read from the data, not from the text of the source: active = inhibition above about 30%; inconclusive = mostly about 10% to 28%; inactive = weaker than that.
# The chains behind the UniProt entries cited, without tags or fusion partners. Where a name states a change or a piece, a line headed by the entry shows the natural chain unless it says otherwise.
# UniProt Q01638: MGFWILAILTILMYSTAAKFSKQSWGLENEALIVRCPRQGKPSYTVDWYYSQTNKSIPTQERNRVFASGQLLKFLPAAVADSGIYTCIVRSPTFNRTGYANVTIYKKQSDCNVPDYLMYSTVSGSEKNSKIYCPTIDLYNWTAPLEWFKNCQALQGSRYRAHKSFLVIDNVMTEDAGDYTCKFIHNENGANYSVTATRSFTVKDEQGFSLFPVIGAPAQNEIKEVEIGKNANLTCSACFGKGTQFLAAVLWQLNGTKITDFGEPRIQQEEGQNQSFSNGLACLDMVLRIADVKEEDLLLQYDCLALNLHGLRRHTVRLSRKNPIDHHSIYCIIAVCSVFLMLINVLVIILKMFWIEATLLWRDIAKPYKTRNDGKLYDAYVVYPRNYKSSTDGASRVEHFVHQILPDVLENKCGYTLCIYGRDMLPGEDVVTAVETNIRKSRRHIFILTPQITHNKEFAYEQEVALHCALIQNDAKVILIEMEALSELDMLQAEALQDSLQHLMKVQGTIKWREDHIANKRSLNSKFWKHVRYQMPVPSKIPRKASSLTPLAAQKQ
# Biological target: Interleukin-1 receptor-like 1 (Homo sapiens) (UniProt Q01638)
# Assay: blocks human ST2 binding to IL-33, primary screen, biochemical, AlphaLISA (AID 1259354)
# Details: AlphaLISA ST2-Fc/biotin-IL-33 interaction, 1 h; at 17 µM, hits give high values
row,Structure (SMILES),inhibition
1,COc1ccc(Br)cc1C(=O)Nc1cccc2nsnc12,inconclusive: 10%
2,COc1ccc(C2Oc3ccccc3C3CC(c4cccs4)=NN32)cc1O (stereo not given),inconclusive: 24%
3,Cc1cccn2c(=O)c3cc(C(=O)N4CCN(c5ccccc5F)CC4)n(C)c3nc12,inactive
4,Cc1ccc(S(=O)(=O)c2ccc(C)c(S(N)(=O)=O)c2)cc1S(N)(=O)=O,inactive
5,C=CCNC(=O)N[C@H]1[C@H](O)[C@@H](N(CC)CC)[C@@H]2OC[C@H]1O2,inactive
6,Cc1cccc(CN2CCSCC2)c1,inconclusive: 12%
7,Cc1oc(-c2ccccc2Cl)nc1CSCC(=O)N1CCc2ccccc21,inconclusive: 20%
8,O=C(NC1CC(=O)N(C2Cc3ccccc3C2)C1)c1n[nH]c2c1CCCC2 (stereo not given),inconclusive: 25%
9,Cc1oc(CC(C)C)c(CN2CCCCC2)c1C(=O)O,inactive
10,Cn1ncc(N=Cc2ccc([N+](=O)[O-])cc2)c1C(N)=O,inconclusive: 17%
11,Cc1ccccc1OCCOc1ccc([N+](=O)[O-])cc1/C=C1\C(=O)NN(c2ccccc2)C1=O,active: 35%
12,CN1CCN2CCN(C(=O)CCc3cccc(Cl)c3)CC2C1=O (stereo not given),inconclusive: 18%
13,O=C(CC(c1ccc(O)cc1)c1ccccc1O)NC1CCCCCC1 (stereo not given),inactive
14,O=C(N[C@H]1CO[C@H]2[C@@H]1OC[C@@H]2Nc1nccc(-c2cccc(F)c2)n1)c1ccc2c(c1)OCO2,inactive
15,Cn1c(SCC(=O)Nc2nccs2)nnc1C(O)c1ccccc1 (stereo not given),inactive
16,CCN(CC)CCn1c2ccccc2n2nc(C)c(=O)nc12,inactive
17,CCSc1nnc(-c2ccc(C)c(S(=O)(=O)N3CCN(C)CC3)c2)c2ccccc12,inconclusive: 16%
18,COc1ccccc1/C=C/C1=NC(=C\c2cccnc2)/C(=O)O1,inconclusive: 11%
19,O=C(CSc1ccccc1)NCCN1CCOCC1,inactive
20,CCN(CC)C(=O)[C@@H]1C[C@@H](N)CN1S(=O)(=O)c1cc(C)ccc1OC,inconclusive: 14%
21,O=[N+]([O-])c1cc(CN2CCOCC2)c2cccnc2c1O,inconclusive: 11%
22,O=C(c1ccsc1)N1CCC2(CCCN(Cc3cccc(F)c3F)C2=O)C1 (stereo not given),inactive
23,COc1cc(C(=O)O/N=C2\C=C(C(C)C)C(=O)C=C2C)cc(OC)c1OC,inconclusive: 12%
24,O[C@H]1CC[C@H]2C[C@@H]1CC[C@@H]2O,inconclusive: 15%

row,Structure (SMILES),inhibition
1,CC1=C(C(=O)Nc2ccccc2)C(c2ccncc2)n2nc(SCc3ccccc3)nc2N1 (stereo not given),inconclusive: 21%
2,C[C@@]1(O)CCN(C(=O)CCCN2CCOCC2)C[C@@H]1Cc1ccccc1,inconclusive: 17%
3,Nc1nnc(-c2ccc([N+](=O)[O-])cc2)s1,inactive
4,CCn1c(SCc2c(Cl)cccc2[N+](=O)[O-])nc2ccccc2c1=O,inconclusive: 23%
5,CCOc1ccc(/C=C2\N=C(c3ccccc3C)OC2=O)cc1OCC,inconclusive: 20%
6,Cc1c(N)cccc1-c1nc2cc(Cl)ccc2o1,inactive
7,O=C1C2C(C(=O)N1c1cccc(Cl)c1)[C@H]1C=C[C@@H]2CC1 (stereo not given in full),inactive
8,Cc1nc(C)c(-c2cc(C)c3c(C)nc(C)nc3n2)c(N)n1,inconclusive: 10%
9,CCC1Oc2ccccc2N(CC(=O)NCCN(CC)CC)C1=O (stereo not given),inactive
10,COC(=O)c1ccc(NC(=O)c2ccc(=O)n(Cc3c(F)cccc3Cl)c2)cc1,inactive
11,CCOC(=O)c1c(C)oc2c(Cl)cc(NS(=O)(=O)c3ccc(CC)cc3)cc12,inactive
12,O=C(NCCN1CCCC1)C1CC(=O)N(C2CCCCCC2)C1 (stereo not given),inactive
13,Cc1ccccc1C(=O)Nc1ccc([N+](=O)[O-])cc1,inactive
14,Cc1cccc2c(=O)c(C(=O)N3CCOC(C(F)(F)F)C3)c[nH]c12 (stereo not given),inactive
15,CSc1ccccc1-c1cc(C)nc(N)n1,inconclusive: 17%
16,Nc1nc(-c2cc3cc(Cl)cc(Cl)c3oc2=O)cs1,inconclusive: 27%
17,COc1ccc(-c2ccc(NC(=O)CN)c(F)c2)cn1,inconclusive: 11%
18,CC1=C(C(=O)Nc2cccc(C)n2)C(c2cccc(Cl)c2Cl)C2=C(CC(C)(C)CC2=O)N1 (stereo not given),inactive
19,COc1ccc(CCN2CC(NC(=O)Cn3cccn3)CC2=O)cc1 (stereo not given),inconclusive: 10%
20,CC(C)(O)C#Cc1ccc(C(=O)N2[C@@H]3CC[C@H]2CNC(=O)C3)cc1,inactive
21,Cc1nnc(SCCCNC(=O)[C@@]23CC[C@@](C)(OC2=O)C3(C)C)s1,inconclusive: 17%
22,Cc1cc(N2CCC(C)CC2)nc2ccc(NC(=O)C3COc4ccccc4O3)cc12 (stereo not given),inactive
23,CNCCc1cnc(CCC(c2ccccc2)c2ccccc2)[nH]1,inconclusive: 14%
24,O=C(CSc1nc2c(cnn2-c2ccc(F)cc2)c(=O)[nH]1)Nc1ccc(F)cc1,inconclusive: 14%

row,Structure (SMILES),inhibition
1,CC(=O)C1=C(C)OC(N)=C(C#N)C1c1ccccc1 (stereo not given),inactive
2,O=C(Cc1ccc(-n2c(=O)[nH]c3ccsc3c2=O)cc1)N1CCN(c2ncccn2)CC1,inactive
3,CC(NC(=O)Cc1nc2ccccc2[nH]1)c1ccc(O)c(F)c1 (stereo not given),inconclusive: 10%
4,COc1ccccc1CNc1ccc2cn[nH]c2c1,inconclusive: 21%
5,COc1cccc2c1OCCCN(C(=O)COc1ccc(N3CCN(c4ccccn4)CC3)nn1)C2,inconclusive: 15%
6,Cc1cc([N+](=O)[O-])ccc1NC(=O)C(Cl)(Cl)Cl,inconclusive: 12%
7,O=C(Cc1c(C(=O)O)[nH]c2ccc(Cl)cc12)NCCCN1CCN(c2ccccc2F)CC1,inactive
8,O=C(Nc1ncn[nH]1)c1c(Cl)ccc(Cl)c1Cl,inconclusive: 12%
9,Cc1nn(C)c(C)c1CCc1nc(CC(C)C)nn1-c1ccccn1,inactive
10,CCc1ccc(Cn2cnc(-c3ccccc3)c2-c2cnc(OC)nc2)nc1,inconclusive: 19%
11,CCSc1nc(C2CC2)cc(-c2ccco2)c1C#N,inconclusive: 21%
12,COc1cc(CN2CCN(c3ccccc3)CC2)ccc1OCc1ccccc1,inconclusive: 28%
13,CC(C)=CCC/C(C)=C/Cc1cc(-c2coc3cc(O)ccc3c2=O)ccc1O,inconclusive: 13%
14,O=c1c(-n2nnc3ccccc32)c2oc3ccccc3nc-2c2ccccc12,inconclusive: 27%
15,COc1cc(OC)cc(-n2c(=O)c3sccc3n(Cc3ccc(C)cc3)c2=O)c1,inconclusive: 22%
16,CC1=C(C(=O)Nc2nc3ccccc3s2)C(c2cccc(Cl)c2)C2=C(CCCC2=O)N1 (stereo not given),inconclusive: 11%
17,CCSc1oc(-c2cccs2)nc1S(=O)(=O)c1ccc(F)cc1,inactive
18,C#Cc1cccc(N2C(=O)c3ccccc3C2=O)c1,inconclusive: 10%
19,Cc1cccc(N2C(=O)NC3CC2(C)Oc2ccc(Br)cc23)c1 (stereo not given),inconclusive: 10%
20,COC1C2C3CC4C5C3C1C5C(O)(c1ccccc1)C42 (stereo not given),inconclusive: 12%
21,O=C(Nc1ccc(Cl)cn1)c1ccc(I)cc1,inconclusive: 17%
22,CC(C)n1c(SCC(=O)O)nc2c1c(=O)[nH]c(=O)n2C,inconclusive: 23%
23,COCCCNC(=O)c1nn(C)c2c1CN(C(=O)c1ccccc1-c1ccccc1C)CC2,inactive
24,CN1[C@@H](c2ccccc2)[C@@H](C(=O)NCCc2cccnc2)C[C@@]1(C)C(=O)O,inactive

# Reformatted: entries from further up.
row | Structure (SMILES) | inhibition
14 | O=C(N[C@H]1CO[C@H]2[C@@H]1OC[C@@H]2Nc1nccc(-c2cccc(F)c2)n1)c1ccc2c(c1)OCO2 | inactive
21 | O=[N+]([O-])c1cc(CN2CCOCC2)c2cccnc2c1O | inconclusive: 11%

# Structural class, the compounds so far with bromine.
row,Structure (SMILES),inhibition
1,COc1ccc(Br)cc1C(=O)Nc1cccc2nsnc12,inconclusive: 10%
19,Cc1cccc(N2C(=O)NC3CC2(C)Oc2ccc(Br)cc23)c1 (stereo not given),inconclusive: 10%

# Later entries.

row,Structure (SMILES),inhibition
1,Cc1cccc(NC(=O)CNC(=O)C2CCCCC2)n1,inconclusive: 17%
2,Oc1ccc(-c2nccn2C2CCC2)c(Cl)c1,inconclusive: 16%
3,Cc1sc2ncnc(N(C)C3CCCCC3)c2c1S(=O)(=O)N1CCC(C)CC1,inactive
4,O=C(Cc1cc(C(F)(F)F)cc(C(F)(F)F)c1)N1CC[C@H](CO)[C@H](O)C1,inconclusive: 18%
5,Cn1c(=O)n(Cc2ccc(Cl)cc2)c(=O)c2c1nc1n2CCN1c1ccccc1,inconclusive: 16%
6,CCCC(=O)N(c1ccccc1)C1CC(C)Nc2ccccc21 (stereo not given),inconclusive: 13%
7,COc1ccc(S(=O)(=O)N2CCN(c3cc(-c4ccc(C)cc4)ncn3)CC2)cc1Cl,inactive
8,O=C(Nc1cccc(-c2nc3ncccc3o2)c1)c1ccc(Cl)cc1,inconclusive: 14%
9,COc1cc(-c2ncnn2-c2sc3c(c2C#N)CCCC3)cc(OC)c1OC,inconclusive: 25%
10,CCOc1cc(/C=C2\C(=O)Nc3ccc(Br)cc32)cc(Br)c1OCC,inconclusive: 25%
11,COc1ccc(C2C3=C(CCCC3=O)Nc3nc(SC)[nH]c(=O)c32)cc1OC (stereo not given),inconclusive: 12%
12,O=C(C1CC1)N1CCc2cc(Br)cc(S(=O)(=O)NC3CCCC3)c21,inactive
13,COc1ccc(C(CC(=O)N(C)Cc2cnccn2)c2ccccc2)cc1 (stereo not given),inconclusive: 11%
14,CCOc1ccc(-n2c(C)nc3c(cnn3-c3ccccc3Cl)c2=O)cc1,inconclusive: 12%
15,CCCCc1nnc(NC(=O)CSCc2cc(=O)n3oc(C)cc3n2)s1,inconclusive: 25%
16,COc1ccc(-c2noc([C@@H]3C[C@@H](O)CN3Cc3ccccc3)n2)cc1,inactive
17,O=C(Cn1[nH]c(=O)ccc1=O)N1CCCN(Cc2cccs2)CC1,inconclusive: 15%
18,COC(=O)c1nc2n(n1)C(c1ccccc1)C1=C(CC(C)(C)CC1=O)N2 (stereo not given),inconclusive: 10%
19,Cc1ccccc1/C=C1\Sc2ccccc2N(CC(=O)NC2CCCC2)C1=O,inconclusive: 12%
20,Cn1c(=O)c2c(nc3n(-c4ccccc4)c(-c4ccc(F)cc4)cn23)n(C)c1=O,inconclusive: 13%
21,CC(C)NC(=O)CSc1c2c(nc3ccc(Cl)cc13)CCCC2,inconclusive: 13%
22,CC1=C(C(=O)Nc2ccccn2)C(c2cccc(Cl)c2Cl)C2=C(CCCC2=O)N1 (stereo not given),inactive
23,CCCc1nc(C)cc(N2CCN(c3ncccc3C(N)=O)CC2)n1,inactive

# Reference: PubChem BioAssay AID1259354 (Paczesny and Yang Labs, IUPUI and University of Michigan, 2018)
